The record followed here is PMC11172124 (Cells, 2024).

Amino acid sequences for entries named in this document (tags omitted).
UniProt P20700: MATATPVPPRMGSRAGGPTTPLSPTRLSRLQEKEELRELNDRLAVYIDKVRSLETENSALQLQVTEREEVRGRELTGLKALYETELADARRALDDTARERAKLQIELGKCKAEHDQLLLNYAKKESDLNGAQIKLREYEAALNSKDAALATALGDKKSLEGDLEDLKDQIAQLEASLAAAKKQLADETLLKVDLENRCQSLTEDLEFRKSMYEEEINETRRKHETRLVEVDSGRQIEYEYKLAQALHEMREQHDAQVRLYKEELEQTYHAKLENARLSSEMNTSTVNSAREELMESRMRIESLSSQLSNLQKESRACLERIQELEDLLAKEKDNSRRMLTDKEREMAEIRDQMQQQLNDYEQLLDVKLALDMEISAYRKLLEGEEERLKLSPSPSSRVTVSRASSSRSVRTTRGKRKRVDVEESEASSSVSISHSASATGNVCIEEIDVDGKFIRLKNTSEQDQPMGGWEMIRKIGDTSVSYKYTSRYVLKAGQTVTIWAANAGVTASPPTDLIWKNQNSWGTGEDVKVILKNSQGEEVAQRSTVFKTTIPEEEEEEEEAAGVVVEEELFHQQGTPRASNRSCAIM
UniProt O94901: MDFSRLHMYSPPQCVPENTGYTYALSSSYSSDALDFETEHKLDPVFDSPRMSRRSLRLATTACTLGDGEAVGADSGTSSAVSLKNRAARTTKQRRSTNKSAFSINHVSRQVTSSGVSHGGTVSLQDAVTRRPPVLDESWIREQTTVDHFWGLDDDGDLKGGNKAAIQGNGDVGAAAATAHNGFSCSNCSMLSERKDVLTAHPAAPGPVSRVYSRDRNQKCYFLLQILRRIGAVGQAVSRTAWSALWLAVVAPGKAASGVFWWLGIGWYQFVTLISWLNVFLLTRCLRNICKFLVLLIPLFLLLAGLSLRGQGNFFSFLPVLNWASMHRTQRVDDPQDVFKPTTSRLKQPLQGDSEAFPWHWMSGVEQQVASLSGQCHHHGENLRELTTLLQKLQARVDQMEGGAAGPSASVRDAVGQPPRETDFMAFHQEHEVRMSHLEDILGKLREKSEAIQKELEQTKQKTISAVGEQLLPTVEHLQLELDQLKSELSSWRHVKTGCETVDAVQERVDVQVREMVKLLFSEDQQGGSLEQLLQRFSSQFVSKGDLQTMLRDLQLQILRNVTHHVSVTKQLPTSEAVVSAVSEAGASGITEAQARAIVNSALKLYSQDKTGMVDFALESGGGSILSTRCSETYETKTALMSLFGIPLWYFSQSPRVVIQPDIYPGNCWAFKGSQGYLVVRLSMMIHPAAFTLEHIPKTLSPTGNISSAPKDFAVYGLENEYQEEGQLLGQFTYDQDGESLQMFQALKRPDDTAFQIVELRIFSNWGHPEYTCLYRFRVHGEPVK

These are yes or no findings as the source states them, for the method shown. Some results given as binding are weak or reduced against the parent protein; the word gives no strength.

Test [1] deals with Lamin B1 (human (endogenous in MCF10A and MDA-MB-231)) (UniProt P20700). Kind of test: non-reducing SDS-PAGE with Western blot; MDA-MB-231 cell lysate with 20 mM N-ethylmaleimide, without β-mercaptoethanol, 4 min at 50 °C, 4–12% gradient gel; shows only disulphide-linked species.
Test [2] has as its target SUN1 (human (endogenous in MCF10A and MDA-MB-231)) (UniProt O94901). Kind of test: non-reducing SDS-PAGE with Western blot; MCF10A cell lysate with 20 mM N-ethylmaleimide, without β-mercaptoethanol, 4 min at 50 °C, 4–12% gradient gel; shows only disulphide-linked species.
Test [3] has the same target. In words: non-reducing SDS-PAGE with Western blot; MDA-MB-231 cell lysate with 20 mM N-ethylmaleimide, without β-mercaptoethanol, 4 min at 50 °C, 4–12% gradient gel; shows only disulphide-linked species.
Test [4] deals with SUN2 (human (endogenous in MCF10A and MDA-MB-231)) (UniProt Q9UH99). Described as above.

On to Lamin B1 (from UniProt P20700 1-586), for which the binding entry in test [1] was “no binding (condition: in MDA-MB-231 cell lysate)”. SUN1 (from UniProt O94901 1-785): the binding entry in test [2] and in test [3] was “binds” in each case.

B1: SUN2 (natural protein, UniProt Q9UH99-2 1-738, looked up)
chain: MSRRSQRLTRYSQGDDDGSSSSGGSSVAGSQSTLFKDSPLRTLKRKSSNMKRLSPAPQLGPSSDAHTSYYSESLVHESWFPPRSSLEELHGDANWGEDLRVRRRRGTGGSESSRASGLVGRKATEDFLGSSSGYSSEDDYVEDSEGRGSKVTETEPVSSFPAGYSDVDQQSSSSRLRSAVSRAGSLLWMVATSPGRLFRLLYWWAGTTWYRLTTAASLLDVFVLTRRFSSLKTFLWFLLPLLLLTCLTYGAWYFYPYGLQTFHPALVSWWAAKDSRRPDEGWEARDSSPHFQAEQRVMSRVHSLERRLEALAAEFSSNWQKEAMRLERLELRQGAPGQGGGGGLSHEDTLALLEGLVSRREAALKEDFRRETAARIQEELSALRAEHQQDSEDLFKKIVRASQESEARIQQLKSEWQSMTQESFQESSVKELRRLEDQLAGLQQELAALALKQSSVAEEVGLLPQQIQAVRDDVESQFPAWISQFLARGGGGRVGLLQREEMQAQLRELESKILTHVAEMQGKSAREAAASLSLTLQKEGVIGVTEEQVHHIVKQALQRYSEDRIGLADYALESGGASVISTRCSETYETKTALLSLFGIPLWYHSQSPRVILQPDVHPGNCWAFQGPQGFAVVRLSARIRPTAVTLEHVPKALSPNSTISSAPKDFAIFGFDEDLQQEGTLLGKFTYDQDGEPIQTFHFQAPTMATYQVVELRILTNWGHPEYTCIYRFRVHGEPAH
notes: SUN2, human, endogenous in MCF10A and MDA-MB-231 cells; detected as a ~80 kDa monomer; Free cysteines were alkylated with 20 mM N-ethylmaleimide when the lysate was made; Which isoform the cells express was not determined; also called SUN-domain protein SUN2
With B1, in test [4], the binding entry was “no binding (condition: in MDA-MB-231 cell lysate)”.
